Results taken from PubChem BioAssay AID493014 (National Center for Advancing Translational Sciences (NCATS), 2011).
Some of the results follow. Shown are side measurements of this screen, not its main read-out; they come without a call. The list favours compounds with an active or inconclusive main result. Words in brackets tell the shape of the fitted curve; partial curves, single points and poor fits give uncertain potencies.

Assay: qHTS Assay to Find Inhibitors of Chronic Active B-Cell Receptor Signaling
Details: ABC-DLBCL IkBa-CBG/CBR reporter, luminescence ratio (green luciferase fused to IkBa over red control in TMD8 lymphoma cells), 4 h
How it was run: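 Compounds up to 46 uM were incubated four hours with TMD8 cells whose green CBG68 luciferase is fused to IkappaBalpha; red CBR luminescence normalised the signal, and concentration-effect curves were fitted to fusion, red and ratio data.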

[1] = measured here: CBR red luminescence, cell number
[2] = measured here: IkBa-CBG green luminescence

SMILES | AC50 [1] | AC50 [2]
CC1(C)CC(NS(=O)(=O)c2cccc3ccccc23)CC(C)(C)N1 | 0.0891 µM [rising, full curve, poor fit] | –
N#Cc1cn(-c2ccccc2)nc1-c1ccccc1 | 11.2 µM [rising, partial curve, poor fit] | –
Cc1ccc2[nH]c(=O)c(CN(C(=O)c3cccc([N+](=O)[O-])c3)C(C)(C)C)cc2c1 | 35.5 µM [rising, partial curve, poor fit] | –
CC1=NN(C(=O)c2c(Br)cnn2C)C(O)(C(F)(F)F)C1 (stereo not drawn) | 6.31 µM [falling, single point] | –
O=C(Nc1cccc(S(=O)(=O)N2CCCC2)c1)c1ccc(Cl)nc1 | 5.8 µM [falling, partial curve] | –
O=C(Nc1ccc(NC(=O)c2ccccc2F)cn1)c1ccco1 | 11.2 µM [falling, single point] | –
CCOc1ccc(C(=O)NC(=S)Nc2cccc(S(=O)(=O)NC3=NCCC3)c2)cc1 | 22.4 µM [rising, single point] | 17.8 µM [falling, partial curve]
CCCc1[nH]nc2c1C(c1cc(OC)ccc1F)C(C#N)=C(N)O2 (stereo not drawn) | 22.4 µM [falling, single point] | –
COc1cc(C(=O)NCC(c2ccco2)N2CCc3ccccc32)cc(OC)c1OC (stereo not drawn) | 14.6 µM [falling, single point] | –
Cc1c(/C=N/n2cnnc2)c2ccccc2n1CCOc1ccccc1 | – | 15.8 µM [falling, partial curve, poor fit]
O=C(Nc1ccc(Cl)cc1C(F)(F)F)C(Sc1nnc(-c2cccs2)o1)c1ccccc1 (stereo not drawn) | 29.1 µM [falling, single point] | –
CC#C[C@]1(O)CC[C@H]2[C@@H]3CCC4=CC(=O)CCC4=C3[C@@H](c3ccc(N(C)C)cc3)C[C@@]21C | – | 17.8 µM [rising, partial curve, poor fit]
Cc1ccc2c(c1)sc(-c1ccc(N(C)C)cc1)[n+]2C | 14.1 µM [falling, partial curve, poor fit] | –
NS(=O)(=O)c1ccc(N/N=C/c2ccc(C(=O)O)cc2)c([N+](=O)[O-])c1 | 3.98 µM [falling, partial curve] | –
CCc1nnc(NC(=O)CSc2nnc(CNc3cccc(Cl)c3)n2CC)s1 | 16.4 µM [falling, single point] | –
COC(=O)[C@]1(C)N[C@H](CN(C)S(=O)(=O)c2ccc(F)cc2)[C@@H]2C(=O)N(C)C(=O)[C@@H]21 | 16.4 µM [rising, partial curve, poor fit] | –
O=C(NCCc1ccccc1)c1c[nH]c2c(F)cccc2c1=O | 14.1 µM [falling, single point] | –
COC(=O)c1ccc(C(=O)NC2CCSc3ccccc32)cc1 (stereo not drawn) | 15.8 µM [falling, single point] | –
C=C1C(=O)O[C@@]23[C@H]1CC[C@@H](C)[C@@H]2CC[C@@]1(C)O[C@@H]31 | 6.51 µM [falling, full curve] | –
Cc1ccccc1NC(=S)NCc1ccc2c(c1)cc(C)n2C | 16.4 µM [rising, partial curve] | 5.8 µM [falling, partial curve]
O=c1c2ccccc2nc(-c2ccccc2)n1CCCn1ccnc1 | 35.5 µM [rising, single point] | –

4 consecutive compounds already listed, quoted:
SMILES | AC50 [1] | AC50 [2]
O=C(Nc1ccc(Cl)cc1C(F)(F)F)C(Sc1nnc(-c2cccs2)o1)c1ccccc1 (stereo not drawn) | 29.1 µM [falling, single point] | –
CC#C[C@]1(O)CC[C@H]2[C@@H]3CCC4=CC(=O)CCC4=C3[C@@H](c3ccc(N(C)C)cc3)C[C@@]21C | – | 17.8 µM [rising, partial curve, poor fit]
Cc1ccc2c(c1)sc(-c1ccc(N(C)C)cc1)[n+]2C | 14.1 µM [falling, partial curve, poor fit] | –
NS(=O)(=O)c1ccc(N/N=C/c2ccc(C(=O)O)cc2)c([N+](=O)[O-])c1 | 3.98 µM [falling, partial curve] | –

(listing goes on)

SMILES | AC50 [1] | AC50 [2]
COc1ccc(/C=N\NC(=O)c2ccc(-c3ccccc3)cc2)cc1COC(C)=O | 10 µM [falling, partial curve, poor fit] | –
O=C(NN=C1CCCCCCC1)c1ccc2ccccc2n1 | 15.8 µM [falling, single point] | –
CCOc1ccccc1NC(=O)COc1coc(CN2CCCc3ccccc32)cc1=O | 0.82 µM [falling, full curve] | –
CSCC[C@H](NC(=O)C1CCN(S(=O)(=O)c2ccc(C)cc2C)CC1)c1nc2ccccc2[nH]1 | 2.06 µM [rising, partial curve, poor fit] | –
CCCn1c(SCC(=O)Nc2cccc(S(=O)(=O)N(C)C)c2)nc2ccccc2c1=O | 1.26 µM [falling, full curve, poor fit] | –
CCOC(=O)C1CCCCN1C(=O)CCc1c(C)nc2ncnn2c1C (stereo not drawn) | 3.16 µM [falling, partial curve] | –
O=C(N/N=C/c1ccc(O)c(O)c1)NC12CC3CC(CC(C3)C1)C2 | 35.5 µM [falling, single point] | –
O=C(COC(=O)CC1CCCC1)Nc1ccc(Cl)cn1 | 2.31 µM [rising, partial curve, poor fit] | –
COCCNC(=O)c1ccccc1NC(=O)CCSc1ccccc1 | 11.2 µM [falling, partial curve, poor fit] | –
O=C(CNC(=O)c1ccc(F)cc1)N/N=C/c1ccc(O)c([N+](=O)[O-])c1 | 0.259 µM [falling, full curve] | –
Cc1ccc(C(=O)OCC(=O)NCc2cc(C)c(O)c(C)c2)cc1S(=O)(=O)N1CCCCC1 | 0.259 µM [rising, full curve, poor fit] | –
CCOC(=O)c1cccc(NC(=O)CN2CCN(c3ccc(OC)cc3)CC2)c1 | 25.1 µM [rising, single point] | –
COc1cc(OC)c(-c2nc3ccccc3s2)cc1OC | 0.316 µM [rising, full curve, poor fit] | –
CCOc1ccc(S(=O)(=O)N2CCCC(C(=O)NCC3CCCO3)C2)cc1 (stereo not drawn) | 6.31 µM [rising, single point] | –
Cc1ccc(C(=O)N(CCCN(C)C)c2nc3ccc(Cl)cc3s2)cc1C | 35.5 µM [falling, single point] | –
O=C(NC1CCCCC1)C(c1ccc2ncccc2c1)N(Cc1ccc2c(c1)OCO2)C(=O)c1cccs1 (stereo not drawn) | 7.08 µM [falling, partial curve, poor fit] | –
COc1cc(/C=N/OCC(=O)NC23CC4CC(CC(C4)C2)C3)ccc1OCc1ccccc1 | 5.17 µM [rising, partial curve, poor fit] | –
O=C(c1cccs1)N1CCN(Cc2cn[nH]c2-c2ccc(F)cc2F)CC1 | 6.31 µM [falling, single point] | –
O=C(Nc1c(C(=O)N2CCN(c3ccccc3)CC2)oc2ccccc12)c1ccccc1F | 12.6 µM [rising, partial curve, poor fit] | –
Cc1ccnc(NC(c2cccnc2)c2ccc3cccnc3c2O)c1 (stereo not drawn) | 12.6 µM [falling, single point] | –
Cc1ccc(NC(=O)C2CCCN(c3ncnc4c3nc3n4CCCCC3)C2)cc1Cl (stereo not drawn) | 35.5 µM [falling, single point] | –

SMILES | AC50 [1] | AC50 [2]
Cc1cc(C(=O)NN=C(Cc2ccccc2)Cc2ccccc2)c(C)o1 | 9.2 µM [falling, partial curve, poor fit] | –
Cc1ccc(NC(=O)COC(=O)COc2cccc3c2OC(C)(C)C3)cc1C | 35.5 µM [rising, single point] | –
CCn1c(CNc2ccc(C)cc2C)nnc1SCC(=O)N1CCCc2ccccc21 | 4.11 µM [falling, full curve, poor fit] | –
CN1CCN(CCCNC(=O)CCN2C(=O)COc3ccccc32)CC1 | 17.8 µM [rising, partial curve, poor fit] | –
CCOc1ccc(-c2c(=O)n(OCc3ccc([N+](=O)[O-])cc3)c3ccccc3[n+]2[O-])cc1 | 29.1 µM [falling, single point] | –
Cc1nonc1OCCCNc1ccc([N+](=O)[O-])cc1Cl | 4.47 µM [rising, single point] | –
O=C(Nc1nc(-c2cc(Cl)sc2Cl)cs1)c1cccs1 | 0.164 µM [rising, full curve, poor fit] | –
CC(=C\c1ccccc1)/C=C1/SC(=S)N(C(C(=O)O)C(C)C)C1=O (stereo not drawn) | 3.55 µM [falling, partial curve, poor fit] | –
O=C(NCC1CCCO1)c1sc2cc(Cl)ccc2c1Cl (stereo not drawn) | 29.1 µM [falling, single point] | –
O=S(=O)(c1ccccc1)c1nc(-c2ccccc2Cl)oc1NCCN1CCOCC1 | 18.4 µM [falling, single point] | –
Cc1ccc(C)c(N2CCN(S(=O)(=O)c3c(C(=O)N4CCCCC4)c(C)n(C)c3C)CC2)c1 | 0.631 µM [rising, full curve, poor fit] | –
COc1cccc(N2CCN(c3ncnc4c3[nH]c3ccc(F)cc34)CC2C)c1 (stereo not drawn) | 8.91 µM [falling, partial curve, poor fit] | –
Cc1cccnc1NC(=O)C(C)Oc1ccccc1 (stereo not drawn) | 1.46 µM [rising, partial curve, poor fit] | –
CCOC(=O)NC1(Nc2ccc(Cl)cn2)Oc2ccccc2O1 | 20 µM [falling, single point] | –
COc1ccc(/C=N\NC(=O)COc2ccccc2Cl)cc1Cn1nc(C)cc1C | 17.8 µM [rising, single point] | –
COc1ccc(NC(=O)CSc2nnc(Cc3ccccc3)c(=O)n2N)c(OC)c1 | 1.3 µM [falling, full curve, poor fit] | –
COC(=O)Cc1c(C)c2ccc(OCC(C)=O)c(C)c2oc1=O | 29.1 µM [falling, single point] | –
Cc1nnc(NC(=O)COc2ccccc2)s1 | 1.16 µM [rising, partial curve, poor fit] | –
COc1ccc(CCNC(=O)Cn2c(=O)n(CC3CCCO3)c(=O)c3cc(OC)c(OC)cc32)cc1OC (stereo not drawn) | 35.5 µM [rising, single point] | –
